Holding throughout (assay): co-IP; HEK293 cells cotransfected with GFP- and Myc-tagged constructs; lysis in Buffer A (20 mM Tris, 100 mM NaCl, 1% Nonidet-P 40, 1 mM EDTA, 1 mM EGTA); immunoprecipitation with mouse anti-GFP and Protein G beads at 4°C; blot for the tags
Assay [1] addresses T1, GFP-Tbx1 (UniProt O43435).
T1 sequence: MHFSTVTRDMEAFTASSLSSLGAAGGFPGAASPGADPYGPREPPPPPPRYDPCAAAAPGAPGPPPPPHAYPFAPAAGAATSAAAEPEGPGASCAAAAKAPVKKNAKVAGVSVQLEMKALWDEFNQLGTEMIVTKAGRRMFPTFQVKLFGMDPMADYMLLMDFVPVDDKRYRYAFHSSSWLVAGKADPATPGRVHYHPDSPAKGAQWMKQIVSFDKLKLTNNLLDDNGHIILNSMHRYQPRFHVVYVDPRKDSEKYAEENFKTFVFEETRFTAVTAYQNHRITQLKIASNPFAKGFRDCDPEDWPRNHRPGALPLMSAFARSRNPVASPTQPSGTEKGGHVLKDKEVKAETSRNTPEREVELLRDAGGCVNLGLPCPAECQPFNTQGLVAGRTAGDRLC

In assay [2] the target is GFP tagged Cmb-PA (Combover/CG10732 isoform PA) (Drosophila melanogaster).
The target of assay [3] is GFP tagged Cmb-PB (Combover/CG10732 isoform PB) (Drosophila melanogaster).

Results are given in words; binding and its absence hold for the method and conditions named. In cells and extracts the contact can be indirect. Tags and fused reporters may be left off the sequences shown.

Take “Myc-tagged Mwh (Multiple wing hairs) (Drosophila melanogaster)”: the binding entry in assay [1] is listed as “no binding”.

B1: Myc-Dazap1 (protein, UniProt Q96EP5 1-407)
chain: MNNSGADEIGKLFVGGLDWSTTQETLRSYFSQYGEVVDCVIMKDKTTNQSRGFGFVKFKDPNCVGTVLASRPHTLDGRNIDPKPCTPRGMQPERTRPKEGWQKGPRSDNSKSNKIFVGGIPHNCGETELREYFKKFGVVTEVVMIYDAEKQRPRGFGFITFEDEQSVDQAVNMHFHDIMGKKVEVKRAEPRDSKSQAPGQPGASQWGSRVVPNAANGWAGQPPPTWQQGYGPQGMWVPAGQAIGGYGPPPAGRGAPPPPPPFTSYIVSTPPGGFPPPQGFPQGYGAPPQFSFGYGPPPPPPDQFAPPGVPPPPATPGAAPLAFPPPPSQAAPDMSKPPTAQPDFPYGQYAGYGQDLSGFGQGFSDPSQQPPSYGGPSVPGSGGPPAGGSGFGRGQNHNVQGFHPYRR
Turning to B1, the binding entry in assay [2] and in assay [3] was “no binding” each time.

These data come from paper PMC4160248.
